No constants are given. Whether binding was seen depends on the method and setting. In cells and extracts the contact can be indirect. Some entries that bind do so weakly or less than the wild type.
Columns and labels:
[1] = target: p21-actived kinase 6 (PAK6) (UniProt Q9NQU5); test: co-IP; GC cells exposed to oxaliplatin (Fig. S9a, b); cell line and precipitating antibody not given
[2] = target: p21-actived kinase 6 (PAK6) (UniProt Q9NQU5); test: co-IP; as a2 but in MGC-803 cells, untreated (Fig. S7c-e)
[3] = target: p21-actived kinase 6 (PAK6) (UniProt Q9NQU5); test: co-IP; as a1 but in MGC-803 cells, treated with oxaliplatin (Fig. S7c-e)
[4] = target: p21-actived kinase 6 (PAK6) (UniProt Q9NQU5); test: co-IP; anti-PAK6 antibody, control and PAK6 overexpression SGC-7901 cells, untreated; cytoplasmic and nuclear extracts; Magnetic Co-IP Kit, 4 °C overnight; blot for p-ATR and p-CHK1
[5] = target: p21-actived kinase 6 (PAK6) (UniProt Q9NQU5); test: co-IP; anti-PAK6 antibody, control and PAK6 overexpression SGC-7901 cells treated with oxaliplatin for 24 h; cytoplasmic and nuclear extracts; Magnetic Co-IP Kit, 4 °C overnight; blot for p-ATR and p-CHK1

Protein sequences, listed by entry. Tags and fused reporters are not part of them.
UniProt Q9NQU5: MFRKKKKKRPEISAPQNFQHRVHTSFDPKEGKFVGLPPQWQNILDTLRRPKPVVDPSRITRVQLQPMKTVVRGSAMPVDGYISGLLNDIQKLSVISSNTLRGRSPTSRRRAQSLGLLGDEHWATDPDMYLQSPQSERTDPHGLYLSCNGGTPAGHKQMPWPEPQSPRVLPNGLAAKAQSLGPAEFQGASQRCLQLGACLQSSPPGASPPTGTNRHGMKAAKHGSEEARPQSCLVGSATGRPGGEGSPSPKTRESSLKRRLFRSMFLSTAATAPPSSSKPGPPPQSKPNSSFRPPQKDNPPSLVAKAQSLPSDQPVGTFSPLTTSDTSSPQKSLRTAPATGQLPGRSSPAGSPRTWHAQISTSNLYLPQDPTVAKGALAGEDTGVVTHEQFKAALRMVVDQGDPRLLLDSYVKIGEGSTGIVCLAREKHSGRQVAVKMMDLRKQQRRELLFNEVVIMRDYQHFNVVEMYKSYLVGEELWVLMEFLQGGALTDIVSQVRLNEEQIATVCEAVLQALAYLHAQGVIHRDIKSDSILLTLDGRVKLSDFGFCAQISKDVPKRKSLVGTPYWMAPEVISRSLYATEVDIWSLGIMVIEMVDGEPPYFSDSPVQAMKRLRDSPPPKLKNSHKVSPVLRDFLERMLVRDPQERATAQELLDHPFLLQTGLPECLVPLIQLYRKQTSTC
UniProt Q06609: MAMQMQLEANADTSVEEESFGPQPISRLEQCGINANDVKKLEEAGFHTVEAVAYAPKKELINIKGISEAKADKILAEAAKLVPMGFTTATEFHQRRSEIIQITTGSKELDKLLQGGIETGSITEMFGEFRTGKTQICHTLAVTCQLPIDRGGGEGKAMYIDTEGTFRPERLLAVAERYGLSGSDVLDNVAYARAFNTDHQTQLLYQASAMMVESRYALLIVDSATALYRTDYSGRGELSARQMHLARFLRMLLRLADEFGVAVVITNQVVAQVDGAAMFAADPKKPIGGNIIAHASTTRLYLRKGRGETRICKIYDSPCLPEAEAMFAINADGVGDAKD
UniProt Q13535: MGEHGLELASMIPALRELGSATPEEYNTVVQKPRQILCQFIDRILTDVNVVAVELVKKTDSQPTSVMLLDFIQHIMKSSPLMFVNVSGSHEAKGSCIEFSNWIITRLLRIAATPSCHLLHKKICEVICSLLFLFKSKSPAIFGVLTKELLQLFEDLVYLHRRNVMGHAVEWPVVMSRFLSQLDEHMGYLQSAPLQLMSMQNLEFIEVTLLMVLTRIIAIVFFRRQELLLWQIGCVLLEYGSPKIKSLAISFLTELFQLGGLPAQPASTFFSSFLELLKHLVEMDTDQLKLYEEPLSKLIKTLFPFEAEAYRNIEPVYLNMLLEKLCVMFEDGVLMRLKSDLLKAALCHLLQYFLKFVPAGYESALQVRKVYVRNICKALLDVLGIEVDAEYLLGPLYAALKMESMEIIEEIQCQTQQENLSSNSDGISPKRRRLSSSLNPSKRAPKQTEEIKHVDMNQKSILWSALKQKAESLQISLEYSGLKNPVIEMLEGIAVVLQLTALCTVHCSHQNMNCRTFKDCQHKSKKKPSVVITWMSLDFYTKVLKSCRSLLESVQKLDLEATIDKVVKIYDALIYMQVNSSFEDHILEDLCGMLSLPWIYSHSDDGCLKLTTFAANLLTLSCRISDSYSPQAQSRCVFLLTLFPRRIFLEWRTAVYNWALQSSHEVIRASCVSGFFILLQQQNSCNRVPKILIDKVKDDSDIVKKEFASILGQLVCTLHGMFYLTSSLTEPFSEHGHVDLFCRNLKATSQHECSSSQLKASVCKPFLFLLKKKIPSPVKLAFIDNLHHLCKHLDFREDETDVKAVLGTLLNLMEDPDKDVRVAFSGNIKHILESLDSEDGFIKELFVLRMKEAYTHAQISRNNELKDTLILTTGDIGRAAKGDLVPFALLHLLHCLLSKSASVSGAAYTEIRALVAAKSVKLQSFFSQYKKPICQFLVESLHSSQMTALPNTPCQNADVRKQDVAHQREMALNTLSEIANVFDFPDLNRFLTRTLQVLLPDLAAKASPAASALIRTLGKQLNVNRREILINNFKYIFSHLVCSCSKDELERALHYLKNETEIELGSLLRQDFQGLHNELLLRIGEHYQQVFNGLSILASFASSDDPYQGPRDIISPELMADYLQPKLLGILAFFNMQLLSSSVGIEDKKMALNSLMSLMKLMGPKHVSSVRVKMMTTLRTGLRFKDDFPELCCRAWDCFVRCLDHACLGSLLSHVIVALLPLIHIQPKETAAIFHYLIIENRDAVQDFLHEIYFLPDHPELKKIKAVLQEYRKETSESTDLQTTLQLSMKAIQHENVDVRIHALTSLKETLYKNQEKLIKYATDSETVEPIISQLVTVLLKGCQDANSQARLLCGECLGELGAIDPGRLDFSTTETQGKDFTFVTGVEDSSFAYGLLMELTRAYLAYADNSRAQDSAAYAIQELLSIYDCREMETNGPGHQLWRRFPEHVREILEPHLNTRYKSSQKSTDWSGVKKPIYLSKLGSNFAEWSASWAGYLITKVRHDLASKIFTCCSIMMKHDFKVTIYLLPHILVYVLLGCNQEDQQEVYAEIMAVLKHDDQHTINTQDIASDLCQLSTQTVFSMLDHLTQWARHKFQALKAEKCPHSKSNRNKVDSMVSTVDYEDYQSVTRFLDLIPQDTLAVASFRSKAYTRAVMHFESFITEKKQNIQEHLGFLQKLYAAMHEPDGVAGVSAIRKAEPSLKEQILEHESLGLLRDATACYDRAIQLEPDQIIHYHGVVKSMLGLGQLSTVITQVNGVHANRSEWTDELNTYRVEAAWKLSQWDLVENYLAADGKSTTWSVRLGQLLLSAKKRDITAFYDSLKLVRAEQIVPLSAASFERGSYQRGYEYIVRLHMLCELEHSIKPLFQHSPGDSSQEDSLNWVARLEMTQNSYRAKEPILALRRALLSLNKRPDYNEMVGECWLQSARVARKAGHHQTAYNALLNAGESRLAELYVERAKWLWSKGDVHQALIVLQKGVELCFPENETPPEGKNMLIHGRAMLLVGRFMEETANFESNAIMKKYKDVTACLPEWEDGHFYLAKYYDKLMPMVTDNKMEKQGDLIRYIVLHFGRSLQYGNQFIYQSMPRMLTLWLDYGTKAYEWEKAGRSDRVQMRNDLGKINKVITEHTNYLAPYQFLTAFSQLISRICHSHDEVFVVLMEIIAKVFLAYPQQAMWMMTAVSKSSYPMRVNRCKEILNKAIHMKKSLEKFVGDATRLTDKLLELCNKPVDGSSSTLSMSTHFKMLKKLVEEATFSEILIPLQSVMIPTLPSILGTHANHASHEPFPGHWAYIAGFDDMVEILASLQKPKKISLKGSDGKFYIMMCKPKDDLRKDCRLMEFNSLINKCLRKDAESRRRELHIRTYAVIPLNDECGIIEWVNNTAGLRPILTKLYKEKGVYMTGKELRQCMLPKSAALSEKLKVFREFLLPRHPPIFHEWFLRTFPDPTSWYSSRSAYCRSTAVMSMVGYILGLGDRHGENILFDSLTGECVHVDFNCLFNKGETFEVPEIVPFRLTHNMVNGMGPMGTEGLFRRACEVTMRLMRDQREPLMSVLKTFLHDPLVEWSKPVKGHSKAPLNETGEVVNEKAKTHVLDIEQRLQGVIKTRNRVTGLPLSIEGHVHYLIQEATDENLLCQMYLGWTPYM

With RAD51 (from UniProt Q06609 1-339) the binding [1] was “binds”.

With “phosphorylated ATR (p-ATR) (from UniProt Q13535 1-2644)” the binding [2] was “binds weakly”, the binding [3] was “binds” and the binding [4] was “binds weakly”. The binding [5] was “binds”.

Reference: publication PMC9334622
